# Results from the supplement of paper PMC8728848.
# The list shows a part of the results.
# B1: Actd5 (Actinidia), P84527 (protein)
# chain: ISSCNGPCRDLNDCDGQLICIKGKCNDDPQVGTHICRGTTHSHQPGGCKPSGTLTCRGKSYPTYDCSPPVTSSTPAKLTNNDFSEGGDDGGPSECDESYHNNNERIVALSTGWYNGGSRCGKMIRITASNGKSVSAKVVDECDSRHGCDKEHAGQPPCRNNIVDGSNAVWSALGLDKNVGVVDITWSMA
# Legend:
# Experiment in all cases: glycan array binding signal (z-score within array); higher = stronger binding
# Settings in all cases: glycan notation: IUPAC condensed, linker removed
# Neu5Ac(a2-3)GalNAc = biological target: Neu5Ac(a2-3)GalNAc
# How it was run: (§1)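 Columns mapping to the same glycan were averaged after glycan names were converted to IUPAC-condensed notation. The data come from 3228 arrays in the Consortium for Functional Glycomics database, limited to those with an available protein sequence. Binding is reported as a within-array Z-score averaged across arrays of one protein sequence and across linkers.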
# [1] = biological target: Neu5Ac(a2-3)GalNAc(b1-4)GlcNAc
# How it was run: as §1
# [2] = biological target: Neu5Ac(a2-3)[GalNAc(b1-4)]Gal(b1-4)Glc
# How it was run: as §1
# [3] = biological target: Neu5Ac(a2-3)[GalNAc(b1-4)]Gal(b1-4)GlcNAc
# How it was run: as §1
# [4] = biological target: Neu5Ac(a2-3)[GalNAc(b1-4)]Gal(b1-4)GlcNAc(b1-3)GalNAc
# How it was run: as §1
# [5] = biological target: Neu5Ac(a2-3)[Neu5Ac(a2-6)]GalNAc
# How it was run: as §1
# Neu5Ac(a2-6)Gal = biological target: Neu5Ac(a2-6)Gal
# How it was run: as §1
# [6] = biological target: Neu5Ac(a2-6)Gal(b1-3)GlcNAc(b1-3)[Gal(b1-4)GlcNAc(b1-6)]Gal(b1-4)Glc
# How it was run: as §1
# Neu5Ac(a2-6)Gal(b1-4)Glc = biological target: Neu5Ac(a2-6)Gal(b1-4)Glc
# How it was run: as §1
# [7] = biological target: Neu5Ac(a2-6)Gal(b1-4)GlcNAc
# How it was run: as §1
# [8] = biological target: Neu5Ac(a2-6)Gal(b1-4)GlcNAc(b1-2)Man
# How it was run: as §1
# [9] = biological target: Neu5Ac(a2-6)Gal(b1-4)GlcNAc(b1-2)Man(a1-3)Man(b1-4)GlcNAc(b1-4)GlcNAc
# How it was run: as §1
# [10] = biological target: Neu5Ac(a2-6)Gal(b1-4)GlcNAc(b1-2)Man(a1-3)[Gal(b1-4)GlcNAc(b1-2)Man(a1-6)]Man(b1-4)GlcNAc(b1-4)GlcNAc
# How it was run: as §1
# [11] = biological target: Neu5Ac(a2-6)Gal(b1-4)GlcNAc(b1-2)Man(a1-3)[GlcNAc(b1-2)Man(a1-6)]Man(b1-4)GlcNAc(b1-4)GlcNAc
# How it was run: as §1
# [12] = biological target: Neu5Ac(a2-6)Gal(b1-4)GlcNAc(b1-2)Man(a1-3)[GlcNAc(b1-4)][Neu5Ac(a2-6)Gal(b1-4)GlcNAc(b1-2)Man(a1-6)]Man(b1-4)GlcNAc(b1-4)GlcNAc
# How it was run: as §1
# [13] = biological target: Neu5Ac(a2-6)Gal(b1-4)GlcNAc(b1-2)Man(a1-3)[Man(a1-6)]Man(b1-4)GlcNAc(b1-4)GlcNAc
# How it was run: as §1
# [14] = biological target: Neu5Ac(a2-6)Gal(b1-4)GlcNAc(b1-2)Man(a1-3)[Neu5Ac(a2-3)Gal(b1-4)GlcNAc(b1-2)Man(a1-6)]Man(b1-4)GlcNAc(b1-4)GlcNAc
# How it was run: as §1
# [15] = biological target: Neu5Ac(a2-6)Gal(b1-4)GlcNAc(b1-2)Man(a1-3)[Neu5Ac(a2-6)Gal(b1-4)GlcNAc(b1-2)Man(a1-6)]Man(b1-4)GlcNAc(b1-4)GlcNAc
# How it was run: as §1
# [16] = biological target: Neu5Ac(a2-6)Gal(b1-4)GlcNAc(b1-2)Man(a1-3)[Neu5Ac(a2-6)Gal(b1-4)GlcNAc(b1-2)Man(a1-6)]Man(b1-4)GlcNAc(b1-4)[Fuc(a1-6)]GlcNAc
# How it was run: as §1
# [17] = biological target: Neu5Ac(a2-6)Gal(b1-4)GlcNAc(b1-2)Man(a1-6)Man(b1-4)GlcNAc(b1-4)GlcNAc
# How it was run: as §1
# [18] = biological target: Neu5Ac(a2-6)Gal(b1-4)GlcNAc(b1-2)Man(a1-6)[Gal(b1-4)GlcNAc(b1-2)Man(a1-3)]Man(b1-4)GlcNAc(b1-4)GlcNAc
# How it was run: as §1
# [19] = biological target: Neu5Ac(a2-6)Gal(b1-4)GlcNAc(b1-2)Man(a1-6)[GlcNAc(b1-2)Man(a1-3)]Man(b1-4)GlcNAc(b1-4)GlcNAc
# How it was run: as §1
# [20] = biological target: Neu5Ac(a2-6)Gal(b1-4)GlcNAc(b1-2)Man(a1-6)[Man(a1-3)]Man(b1-4)GlcNAc(b1-4)GlcNAc
# How it was run: as §1
# [21] = biological target: Neu5Ac(a2-6)Gal(b1-4)GlcNAc(b1-2)[Neu5Ac(a2-6)Gal(b1-4)GlcNAc(b1-4)]Man(a1-3)[GlcNAc(b1-4)][Neu5Ac(a2-6)Gal(b1-4)GlcNAc(b1-2)[Neu5Ac(a2-6)Gal(b1-4)GlcNAc(b1-6)]Man(a1-6)]Man(b1-4)GlcNAc(b1-4)GlcNAc
# How it was run: as §1
# [22] = biological target: Neu5Ac(a2-6)Gal(b1-4)GlcNAc(b1-2)[Neu5Ac(a2-6)Gal(b1-4)GlcNAc(b1-4)]Man(a1-3)[GlcNAc(b1-4)][Neu5Ac(a2-6)Gal(b1-4)GlcNAc(b1-4)Man(a1-6)]Man(b1-4)GlcNAc(b1-4)GlcNAc
# How it was run: as §1
# [23] = biological target: Neu5Ac(a2-6)Gal(b1-4)GlcNAc(b1-2)[Neu5Ac(a2-6)Gal(b1-4)GlcNAc(b1-6)]Man(a1-6)[Neu5Ac(a2-6)Gal(b1-4)GlcNAc(b1-2)Man(a1-3)][GlcNAc(b1-4)]Man(b1-4)GlcNAc(b1-4)GlcNAc
# How it was run: as §1
# [24] = biological target: Neu5Ac(a2-6)Gal(b1-4)GlcNAc(b1-3)Gal(b1-3)GlcNAc
# How it was run: as §1
# [25] = biological target: Neu5Ac(a2-6)Gal(b1-4)GlcNAc(b1-3)Gal(b1-4)GlcNAc
# How it was run: as §1
# [26] = biological target: Neu5Ac(a2-6)Gal(b1-4)GlcNAc(b1-3)Gal(b1-4)GlcNAc(b1-2)Man(a1-3)[Neu5Ac(a2-6)Gal(b1-4)GlcNAc(b1-3)Gal(b1-4)GlcNAc(b1-2)Man(a1-6)]GalNAc
# How it was run: as §1
# [27] = biological target: Neu5Ac(a2-6)Gal(b1-4)GlcNAc(b1-3)Gal(b1-4)GlcNAc(b1-3)Gal(b1-4)GlcNAc
# How it was run: as §1
# [28] = biological target: Neu5Ac(a2-6)Gal(b1-4)GlcNAc(b1-3)Gal(b1-4)GlcNAc(b1-3)Gal(b1-4)GlcNAc(b1-2)Man(a1-3)[Neu5Ac(a2-6)Gal(b1-4)GlcNAc(b1-3)Gal(b1-4)GlcNAc(b1-3)Gal(b1-4)GlcNAc(b1-2)Man(a1-6)]GalNAc
# How it was run: as §1
# [29] = biological target: Neu5Ac(a2-6)Gal(b1-4)GlcNAc(b1-3)Gal(b1-4)GlcNAc(b1-3)GalNAc
# How it was run: as §1
# [30] = biological target: Neu5Ac(a2-6)Gal(b1-4)GlcNAc(b1-3)Gal(b1-4)GlcNAc(b1-3)[Neu5Ac(a2-6)Gal(b1-4)GlcNAc(b1-3)Gal(b1-4)GlcNAc(b1-6)]GalNAc
# How it was run: as §1
# [31] = biological target: Neu5Ac(a2-6)Gal(b1-4)GlcNAc(b1-3)Gal(b1-4)GlcNAc(b1-6)[Gal(b1-3)]GalNAc
# How it was run: as §1
# [32] = biological target: Neu5Ac(a2-6)Gal(b1-4)GlcNAc(b1-3)Gal(b1-4)[Fuc(a1-3)]GlcNAc(b1-3)Gal(b1-4)[Fuc(a1-3)]GlcNAc
# How it was run: as §1
# [33] = biological target: Neu5Ac(a2-6)Gal(b1-4)GlcNAc(b1-3)GalNAc
# How it was run: as §1
# [34] = biological target: Neu5Ac(a2-6)Gal(b1-4)GlcNAc(b1-3)[Neu5Ac(a2-6)Gal(b1-4)GlcNAc(b1-6)]GalNAc
# How it was run: as §1
# [35] = biological target: Neu5Ac(a2-6)Gal(b1-4)GlcNAc(b1-6)GalNAc
# How it was run: as §1
binder,measurement,setting,value
B1,glycan array binding signal (z-score),Neu5Ac(a2-3)GalNAc,-0.832
same,glycan array binding signal (z-score),[1],-0.145
same,glycan array binding signal (z-score),[2],-0.705
same,glycan array binding signal (z-score),[3],-0.542
same,glycan array binding signal (z-score),[4],0.22
same,glycan array binding signal (z-score),[5],-0.329
same,glycan array binding signal (z-score),Neu5Ac(a2-6)Gal,-0.507
same,glycan array binding signal (z-score),[6],-0.211
same,glycan array binding signal (z-score),Neu5Ac(a2-6)Gal(b1-4)Glc,0.137
same,glycan array binding signal (z-score),[7],-0.691
same,glycan array binding signal (z-score),[8],0.227
same,glycan array binding signal (z-score),[9],-0.071
same,glycan array binding signal (z-score),[10],-0.093
same,glycan array binding signal (z-score),[11],-0.252
same,glycan array binding signal (z-score),[12],-1.55
same,glycan array binding signal (z-score),[13],-0.388
same,glycan array binding signal (z-score),[14],0.577
same,glycan array binding signal (z-score),[15],0.068
same,glycan array binding signal (z-score),[16],0.542
same,glycan array binding signal (z-score),[17],-0.411
same,glycan array binding signal (z-score),[18],-1.05
same,glycan array binding signal (z-score),[19],-0.496
same,glycan array binding signal (z-score),[20],-0.064
same,glycan array binding signal (z-score),[21],-0.29
same,glycan array binding signal (z-score),[22],-0.925
same,glycan array binding signal (z-score),[23],-0.224
same,glycan array binding signal (z-score),[24],0.01
same,glycan array binding signal (z-score),[25],-0.814
same,glycan array binding signal (z-score),[26],0.883
same,glycan array binding signal (z-score),[27],-0.472
same,glycan array binding signal (z-score),[28],3.79
same,glycan array binding signal (z-score),[29],0.091
same,glycan array binding signal (z-score),[30],1.78
same,glycan array binding signal (z-score),[31],-0.12
same,glycan array binding signal (z-score),[32],0.196
same,glycan array binding signal (z-score),[33],-0.953
same,glycan array binding signal (z-score),[34],-0.867
same,glycan array binding signal (z-score),[35],0.285

# Reprinted at random: 2 records from the list, in no set order.
binder,measurement,setting,value
B1,glycan array binding signal (z-score),[26],0.883
same,glycan array binding signal (z-score),[14],0.577
